Measured values from US5674977A, “Branched synthetic peptide conjugate” (The Ontario Cancer Institute, priority 1994, dated 1997).
At least one peptide structure holds a part that was inferred or is arguable (an end, a ring closure or a residue). Numbered stars: 1 amine (or outer) side, 2 acyl side, 3 side chain; on linkers, the order of the positions; unused ones are H or OH. Square brackets hold non-standard residues; d marks the D form. Peptide text beside a SMILES is read from it. X1 = C[C@@H](O)[C@@H](C(=O)[*:2])N(c1c2ccccc2nc2ccccc12)[*:1]

Test system: CHO cells
Test: Fluorescence microscopy of internalization and nuclear localization in live cells
Type: cell-based, Chinese hamster
Conditions: for internalization by CHO cells: within the first hour of incubation, 1 μM (0.1 μM for rhodamine signal)

## NCCCC[C@H](NC(=O)[C@H](CCCCN)NC(=O)[C@H](CCCCN)NC(=O)[C@H](CCCCN)NC(=O)[C@H](CCCCN)Nc1c2ccccc2nc2ccccc12)C(=O)NCC(=O)NCC(=O)NCCCC[C@H](NC(=O)CNC(=O)CNC(=O)[C@H](CCCCN)NC(=O)[C@H](CCCCN)NC(=O)[C@H](CCCCN)NC(=O)[C@H](CCCCN)NC(=O)[C@H](CCCCN)Nc1c2ccccc2nc2ccccc12)C(=O)NCCCC[C@H](NC(=O)[C@H](CCCCNC(=O)CNC(=O)CNC(=O)[C@H](CCCCN)NC(=O)[C@H](CCCCN)NC(=O)[C@H](CCCCN)NC(=O)[C@H](CCCCN)NC(=O)[C@H](CCCCN)Nc1c2ccccc2nc2ccccc12)NC(=O)CNC(=O)CNC(=O)[C@H](CCCCN)NC(=O)[C@H](CCCCN)NC(=O)[C@H](CCCCN)NC(=O)[C@H](CCCCN)NC(=O)[C@H](CCCCN)Nc1c2ccccc2nc2ccccc12)C(=O)NCCCC[C@H](NC(=O)[C@H](CCCCNC(=O)[C@H](CCCCNC(=O)CNC(=O)CNC(=O)[C@H](CCCCN)NC(=O)[C@H](CCCCN)NC(=O)[C@H](CCCCN)NC(=O)[C@H](CCCCN)NC(=O)[C@H](CCCCN)Nc1c2ccccc2nc2ccccc12)NC(=O)CNC(=O)CNC(=O)[C@H](CCCCN)NC(=O)[C@H](CCCCN)NC(=O)[C@H](CCCCN)NC(=O)[C@H](CCCCN)NC(=O)[C@H](CCCCN)Nc1c2ccccc2nc2ccccc12)NC(=O)[C@H](CCCCNC(=O)CNC(=O)CNC(=O)[C@H](CCCCN)NC(=O)[C@H](CCCCN)NC(=O)[C@H](CCCCN)NC(=O)[C@H](CCCCN)NC(=O)[C@H](CCCCN)Nc1c2ccccc2nc2ccccc12)NC(=O)CNC(=O)CNC(=O)[C@H](CCCCN)NC(=O)[C@H](CCCCN)NC(=O)[C@H](CCCCN)NC(=O)[C@H](CCCCN)NC(=O)[C@H](CCCCN)Nc1c2ccccc2nc2ccccc12)C(=O)N[C@@H](Cc1ccc(O)cc1)C(=O)NCC(=O)NCCC(=O)O [octopeptide 3]
After 4 hours
  intracellular localization: randomly distributed between cytoplasmic and nuclear compartments
  internalization by CHO cells: rapidly internalized

## CC(C)[C@H](NC(=O)[C@H](CCCCN)NC(=O)[C@H](CCCNC(=N)N)NC(=O)[C@H](CCCCN)NC(=O)[C@H](CCCCN)NC(=O)[C@H](CCCCN)NC(=O)[C@@H]1CCCN1C(=O)[C@@H]1CCCN1C(=O)[C@@H](Nc1c2ccccc2nc2ccccc12)[C@@H](C)O)C(=O)N[C@@H](CCC(=O)O)C(=O)N[C@@H](CC(=O)O)C(=O)N1CCC[C@H]1C(=O)N[C@@H](CCCCN)C(=O)N[C@@H](CCCCN)C(=O)N[C@@H](CCCCN)C(=O)N[C@@H](CCCCN)C(=O)N[C@@H](CCCCN)C(=O)O [peptide 1, Acr-NLS-CTS] (H-[X1]PPKKKRKVEDPKKKKK-OH)
  internalization by CHO cells: no internalization
